Assay results published in patent publication US20160009772A1 (published 2016).

Target: the molecule itself
Assay: TR-FRET

B1: IRF5(222-467, S430D), S430D phosphomimetic construct of IRF5 (222-467) (other)
chain: EQLLPDLLISPHMLPLTDLEIKFQYRGRPPRALTISNPHGCRLFYSQLEATQEQVELFGPISLEQVRFPSPEDIPSDKQRFYTNQLLDVLDRGLILQLQGQDLYAIRLCQCKVFWSGPCASAHDSCPNPIQREVKTKLFSLEHFLNELILFQKGQTNTPPPFEIFFCFGEEWPDRKPREKKLITVQVVPVAARLLLEMFSGELSWSADDIRLQISNPDLKDRMVEQFKELHHIWQSQQRLQPVAQA
- Kd: 600 nM
